Assay results taken from article PMC10041525, “New Dual Inhibitors of Bacterial Topoisomerases with Broad-Spectrum Antibacterial Activity and In Vivo Efficacy against Vancomycin-Intermediate Staphylococcus aureus” (Journal of Medicinal Chemistry, 2023).

Assay type: physicochemical
Conditions: solubility assay
Method: For the PBS, 2.38 g of disodium hydrogen phosphate dodecahydrate, 0.19 g of potassium dihydrogen phosphate, and 8.0 g of sodium chloride were added to distilled water (900 mL), and the solution was mixed overnight. […] Samples were prepared by weighing the exact mass of solid compounds (about 1 mg), and then, the appropriate volume of PBS was added to reach the final concentration of ∼1 mg/mL. […] The supernatant was diluted 3× with a 1:1 mixture of 0.1% TFA in water and acetonitrile and analyzed by HPLC. For the 7-point calibration curves, concentrated stock solutions of the compounds were prepared at concentrations of 10 and 0.5 mM in DMSO, which were diluted with a 1:1 mixture of 0.1% TFA in water and acetonitrile to the desired final concentrations and analyzed by HPLC. Results are given in μM as an average value of two independent experiments. For details on calibration curves, concentrations, analytical method, and HPLC method, see the Supporting Information.
Thermodynamic solubility assay
To determine thermodynamic solubility of compounds in PBS, calibration curves for the assayed compounds were prepared using seven concentrations. First, DMSO stock solutions of compounds at 10 mM and 0.5 mM concentration were prepared and then diluted (0.1% TFA in […]
Quality control (QC) samples were diluted from stock solutions with a 1:1 mixture of 0.1% TFA in water and acetonitrile to final concentrations of 60 µM, 20 µM, and 2 µM (6 µM, 2 µM, and 0.2 µM for 7f or 0.6 µM, 0.2 µM, and 0.02 µM for 7g).
Analytical reversed-phase UHPLC analyses were performed on Thermo Scientific Dionex UltiMate 3000 modular system (Thermo Fisher Scientific Inc., MA, USA). Waters Acquity UPLC® HSS C18 SB column (2.1 × 50 mm, 1.8 μm; Waters, Milford, MA, USA) was used at T […]
Method repeatability was determined by calculating the RSD from the separately prepared and analysed quality control samples (n = 3). […]
method (1 (or 0.1 or 0.01) µM to 100 (or 10 or 1) µM) was evaluated from the 7-point calibration […]
Solubility was determined in two independent experiments and results were calculated in […]

Point of comparison: Cc1[nH]c(C(=O)Nc2nc3c(N4CCOCC4)cc(C(=O)O)cc3s2)c(Cl)c1Cl [7a, 2-(3,4-Dichloro-5-methyl-1H-pyrrole-2-carboxamido)-4-morpholinobenzo[d]thiazole-6-carboxylic Acid], Recovery 104.5%. Against it:
- Cc1[nH]c(C(=O)Nc2nc3c(N4CCOC(C(F)(F)F)C4)cc(C(=O)O)cc3s2)c(Cl)c1Cl (stereo not drawn) [7i, 2-(3,4-Dichloro-5-methyl-1H-pyrrole-2-carboxamido)-4-(2-(trifluoromethyl)morpholino)benzo[d]thiazole-6-carboxylic Acid] — higher, 119.7%
- Cc1[nH]c(C(=O)Nc2nc3c(N4[C@@H]5CC[C@H]4COC5)cc(C(=O)O)cc3s2)c(Cl)c1Cl [7h, 4-((1R,5S)-3-Oxa-8-azabicyclo[3.2.1]octan-8-yl)-2-(3,4-dichloro-5-methyl-1H-pyrrole-2-carboxamido)benzo[d]thiazole-6-carboxylic Acid] — lower, 103.3%
